Our source for the binding values is PMC11602991.

By UniProt entry, the sequences of proteins in these tests, tags left out. Where a name states a change or a piece, a line headed by the entry shows the natural chain unless it says otherwise. Residues count along the entry.
UniProt Q9Y6E0, residues 2-443: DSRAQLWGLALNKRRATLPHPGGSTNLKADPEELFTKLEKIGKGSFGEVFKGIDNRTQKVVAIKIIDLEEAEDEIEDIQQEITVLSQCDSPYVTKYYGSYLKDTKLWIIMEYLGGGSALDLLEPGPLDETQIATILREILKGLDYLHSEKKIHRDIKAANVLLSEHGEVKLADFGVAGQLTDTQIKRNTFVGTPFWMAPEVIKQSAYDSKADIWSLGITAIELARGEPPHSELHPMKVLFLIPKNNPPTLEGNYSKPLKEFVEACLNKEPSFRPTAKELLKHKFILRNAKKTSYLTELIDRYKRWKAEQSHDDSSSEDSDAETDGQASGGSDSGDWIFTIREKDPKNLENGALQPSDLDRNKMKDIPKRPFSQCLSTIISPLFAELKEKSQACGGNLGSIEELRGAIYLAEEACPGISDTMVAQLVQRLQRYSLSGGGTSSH
UniProt Q9P289, residues 2-416: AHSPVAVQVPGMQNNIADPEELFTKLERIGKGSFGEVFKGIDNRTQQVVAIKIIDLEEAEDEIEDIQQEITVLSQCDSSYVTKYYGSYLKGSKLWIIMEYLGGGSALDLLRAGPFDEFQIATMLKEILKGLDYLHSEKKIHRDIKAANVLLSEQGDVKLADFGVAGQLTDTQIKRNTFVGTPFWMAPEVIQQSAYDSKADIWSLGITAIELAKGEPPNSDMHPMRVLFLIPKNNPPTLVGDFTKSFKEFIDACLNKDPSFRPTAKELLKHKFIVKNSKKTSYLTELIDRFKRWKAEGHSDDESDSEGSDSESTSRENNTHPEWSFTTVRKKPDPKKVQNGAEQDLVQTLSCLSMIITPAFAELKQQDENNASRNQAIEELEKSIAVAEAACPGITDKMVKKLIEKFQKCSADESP
UniProt O00506: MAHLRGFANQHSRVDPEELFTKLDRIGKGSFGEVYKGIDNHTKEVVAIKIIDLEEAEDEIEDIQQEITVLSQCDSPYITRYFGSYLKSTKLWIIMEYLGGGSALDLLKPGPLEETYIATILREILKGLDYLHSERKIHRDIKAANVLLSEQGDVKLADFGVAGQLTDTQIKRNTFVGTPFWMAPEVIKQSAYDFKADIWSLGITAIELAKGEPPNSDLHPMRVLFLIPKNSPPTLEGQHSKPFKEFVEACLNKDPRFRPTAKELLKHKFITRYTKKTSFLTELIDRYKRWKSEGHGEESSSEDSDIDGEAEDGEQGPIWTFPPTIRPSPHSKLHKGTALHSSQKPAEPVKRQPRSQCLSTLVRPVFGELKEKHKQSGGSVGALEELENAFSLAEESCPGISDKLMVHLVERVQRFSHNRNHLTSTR

These are yes or no findings as the source states them, for the method shown.

One test has as its target MST3 (human) (UniProt Q9Y6E0). The test can be described thus: two-hybrid; ULTImate Y2H screens (Hybrigenics) of a random-primed primary human hepatocyte cDNA library in pP6; baits LexA-MST3 and LexA-MST4 in pB27, STK25 screen as described in ref. 26; mating of YHGX13 and L40deltaGal4 yeast strains; selection on medium lacking tryptophan, leucine and histidine.
In a further test the target is MST4 (human) (UniProt Q9P289). The description is as above.

On to MST4 (from UniProt Q9P289-1 2-416), for which the binding entry with MST3 (human) is given as “no binding”.

Regarding STK25 (from UniProt O00506 1-426), the binding result with MST3 (human) and with MST4 (human) was “no binding” in each case.
